Reference: publication PMC6453563
Results are given in words; binding and its absence hold for the method and conditions named.

Sequences of proteins named here, by UniProt entry; tags and fusion partners are left off.
UniProt Q9VSL8: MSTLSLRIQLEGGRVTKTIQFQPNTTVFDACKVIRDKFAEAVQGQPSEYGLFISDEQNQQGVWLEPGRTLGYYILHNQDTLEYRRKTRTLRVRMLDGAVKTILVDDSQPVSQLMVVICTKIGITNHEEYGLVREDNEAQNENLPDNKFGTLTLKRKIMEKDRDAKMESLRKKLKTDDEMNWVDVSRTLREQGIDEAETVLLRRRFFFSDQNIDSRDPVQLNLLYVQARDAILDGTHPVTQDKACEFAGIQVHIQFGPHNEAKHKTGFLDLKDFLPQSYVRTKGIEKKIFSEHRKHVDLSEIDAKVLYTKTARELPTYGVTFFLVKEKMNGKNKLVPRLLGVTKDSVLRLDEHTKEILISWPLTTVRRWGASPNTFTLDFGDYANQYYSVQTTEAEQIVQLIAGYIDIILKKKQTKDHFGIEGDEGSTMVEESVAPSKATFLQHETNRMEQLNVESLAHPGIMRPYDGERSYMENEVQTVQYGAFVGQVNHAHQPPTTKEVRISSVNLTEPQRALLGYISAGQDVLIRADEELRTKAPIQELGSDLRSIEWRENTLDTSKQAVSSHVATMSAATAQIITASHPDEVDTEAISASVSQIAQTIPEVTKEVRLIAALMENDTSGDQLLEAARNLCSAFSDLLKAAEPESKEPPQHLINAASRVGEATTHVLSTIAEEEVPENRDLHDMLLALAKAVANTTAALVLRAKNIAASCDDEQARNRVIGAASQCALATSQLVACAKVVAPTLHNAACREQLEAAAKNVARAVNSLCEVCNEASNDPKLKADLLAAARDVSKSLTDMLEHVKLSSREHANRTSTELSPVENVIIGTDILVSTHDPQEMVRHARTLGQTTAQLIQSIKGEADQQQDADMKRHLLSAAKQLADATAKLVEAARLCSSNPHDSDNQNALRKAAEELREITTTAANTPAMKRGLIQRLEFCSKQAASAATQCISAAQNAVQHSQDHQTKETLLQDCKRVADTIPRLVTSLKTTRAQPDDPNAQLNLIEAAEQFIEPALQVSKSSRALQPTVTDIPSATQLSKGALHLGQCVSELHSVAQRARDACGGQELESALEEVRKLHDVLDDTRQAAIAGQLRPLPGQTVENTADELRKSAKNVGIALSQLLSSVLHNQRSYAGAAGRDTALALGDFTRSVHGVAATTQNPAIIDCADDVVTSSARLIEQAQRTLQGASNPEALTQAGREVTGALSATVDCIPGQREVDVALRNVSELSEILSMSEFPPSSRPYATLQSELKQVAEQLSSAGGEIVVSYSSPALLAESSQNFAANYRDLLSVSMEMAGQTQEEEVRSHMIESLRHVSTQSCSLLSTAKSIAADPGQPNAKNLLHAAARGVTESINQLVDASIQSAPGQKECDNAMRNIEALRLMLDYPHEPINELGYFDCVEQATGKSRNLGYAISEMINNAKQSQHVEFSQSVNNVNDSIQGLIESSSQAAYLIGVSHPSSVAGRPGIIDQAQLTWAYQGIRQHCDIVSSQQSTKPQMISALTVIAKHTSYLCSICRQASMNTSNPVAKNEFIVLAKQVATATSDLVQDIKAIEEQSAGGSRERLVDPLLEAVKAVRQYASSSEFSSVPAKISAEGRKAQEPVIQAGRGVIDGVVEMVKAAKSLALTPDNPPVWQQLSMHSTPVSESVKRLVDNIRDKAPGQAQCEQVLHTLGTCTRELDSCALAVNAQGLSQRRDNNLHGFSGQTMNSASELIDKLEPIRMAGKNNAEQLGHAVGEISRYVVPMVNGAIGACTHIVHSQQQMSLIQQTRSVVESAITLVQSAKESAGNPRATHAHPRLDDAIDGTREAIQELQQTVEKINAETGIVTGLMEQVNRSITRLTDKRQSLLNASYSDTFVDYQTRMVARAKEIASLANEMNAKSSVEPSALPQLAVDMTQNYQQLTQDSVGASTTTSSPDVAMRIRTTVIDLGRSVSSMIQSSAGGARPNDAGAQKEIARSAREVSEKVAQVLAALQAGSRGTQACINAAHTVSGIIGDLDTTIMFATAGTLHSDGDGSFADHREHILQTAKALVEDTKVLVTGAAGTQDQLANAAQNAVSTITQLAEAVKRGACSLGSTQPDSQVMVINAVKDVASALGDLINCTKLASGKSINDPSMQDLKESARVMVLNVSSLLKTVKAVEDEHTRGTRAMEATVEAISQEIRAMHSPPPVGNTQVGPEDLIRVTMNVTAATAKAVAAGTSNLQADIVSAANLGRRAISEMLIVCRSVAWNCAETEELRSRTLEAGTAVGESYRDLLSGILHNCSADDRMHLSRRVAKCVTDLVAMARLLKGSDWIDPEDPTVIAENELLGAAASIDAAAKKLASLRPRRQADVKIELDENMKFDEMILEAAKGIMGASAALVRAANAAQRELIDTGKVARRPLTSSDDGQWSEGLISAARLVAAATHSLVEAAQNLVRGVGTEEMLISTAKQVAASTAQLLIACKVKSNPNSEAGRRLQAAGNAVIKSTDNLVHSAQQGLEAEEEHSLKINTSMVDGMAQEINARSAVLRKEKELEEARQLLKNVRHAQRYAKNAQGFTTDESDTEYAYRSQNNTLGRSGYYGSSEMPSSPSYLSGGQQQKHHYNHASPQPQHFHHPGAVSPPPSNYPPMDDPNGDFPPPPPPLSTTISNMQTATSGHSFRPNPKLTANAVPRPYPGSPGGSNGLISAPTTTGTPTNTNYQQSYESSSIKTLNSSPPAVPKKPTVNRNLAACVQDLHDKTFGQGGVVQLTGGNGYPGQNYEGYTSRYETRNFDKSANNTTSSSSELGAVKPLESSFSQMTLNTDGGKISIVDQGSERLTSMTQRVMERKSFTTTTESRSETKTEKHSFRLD

Target: Talin with internal YPet (Talin-I-YPet) (Drosophila) (UniProt Q9VSL8)
Experiment: fluorescence correlation spectroscopy (molecular brightness); in vivo FCS in the muscle interior next to the muscle attachment site of living talin-I-YPet pupae (20, 24, 30 h APF); brightness (counts per particle) of Talin-I-YPet particles compared with free monomeric YPet expressed in flight muscles

binding: no binding
Substance: Talin with internal YPet (Talin-I-YPet) (from UniProt Q9VSL8 1-2836)
